# Values quoted from earlier work, collected in patent US10500225B2, “Injectable composition; method for preparing said composition; use of said composition” (KH MEDTECH SARL, priority 2015, dated 2019).
# Structures can show the parent of a compound that is named as a salt.
# Details: Example 4 of WO 2010/015900
compound,measurement,value
CCN(CC)CC(=O)Nc1c(C)cccc1C [lidocaine hydrochloride],Time to almost total release from cross-linked hyaluronic acid-based gel,≤ 24 h
